From US20120039915A1
No constants are given. Whether binding was seen depends on the method and setting. Some results given as binding are weak or reduced against the parent protein; the word gives no strength.

Biological target: T1, ALCAM/CD166 (UniProt Q13740)
T1 sequence (looked up): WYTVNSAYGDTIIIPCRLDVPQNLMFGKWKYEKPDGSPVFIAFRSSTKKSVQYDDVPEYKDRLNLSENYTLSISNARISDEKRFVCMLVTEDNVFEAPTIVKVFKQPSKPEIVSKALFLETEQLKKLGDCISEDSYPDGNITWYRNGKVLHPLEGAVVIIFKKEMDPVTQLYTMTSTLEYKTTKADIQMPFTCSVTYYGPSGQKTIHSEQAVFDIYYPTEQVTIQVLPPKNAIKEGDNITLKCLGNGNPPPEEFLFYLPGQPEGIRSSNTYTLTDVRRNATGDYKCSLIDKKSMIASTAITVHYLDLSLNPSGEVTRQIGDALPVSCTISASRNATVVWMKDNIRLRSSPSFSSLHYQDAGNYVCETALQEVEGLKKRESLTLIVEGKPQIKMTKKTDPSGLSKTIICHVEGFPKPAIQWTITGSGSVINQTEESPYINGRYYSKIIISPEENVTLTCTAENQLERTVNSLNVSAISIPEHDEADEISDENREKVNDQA
Experiment: summary table, row 'Target antigen'

binding: binds
B1: GPD32 scFv (scFv)
scFv: QVQLQESGGGLVQPGGSLRLSCAASGFTFSSYALSWVRQAPGKGLEWVSAISGSGGSTYYAGSVKGRFTISRDNSKNTLYLQMNSLRAEDTAVYYCAKGLIASHWGQGTLVTVSSGGGGSGGGGSGGGGSSELTQDPAVSVALGQTVRITCQGDSLRSYYASWYQQKPGQAPVLVIYGKNNRPSGIPDRFSGSSSGNTASLTITGAQAEDEADYYCNSRDSSGIHLVFGGGTKLTVL
